Assay: SOMAscan serum proteomics in NASH subjects treated with selonsertib/simtuzumab, baseline and week 24
Design: species or system human
Settings: serum protein marker level, week 24 vs baseline; for Median percent CHG at W24 in improver: CRN fibrosis stage improvers; for Median percent CHG at W24 in Non-improver: CRN fibrosis stage non-improvers

| Molecule | Median percent CHG at W24 in improver | Median percent CHG at W24 in Non-improver |
| --- | --- | --- |
| Ephrin-A5 (protein, UniProt P52803 21-203, looked up) Ephrin-A5: QDPGSKAVADRYAVYWNSSNPRFQRGDYHIDVCINDYLDVFCPHYEDSVPEDKTERYVLYMVNFDGYSACDHTSKGFKRWECNRPHSPNGPLKFSEKFQLFTPFSLGFEFRPGREYFYISSAIPDNGRRSCLKLKVFVRPTNSCMKTIGVHDRVFDVNDKVENSLEPADDTVHESAEPSRGEN | −0.13% | 5.39% |
| Endoglin (protein, UniProt P17813 26-658, looked up) Endoglin: ETVHCDLQPVGPERGEVTYTTSQVSKGCVAQAPNAILEVHVLFLEFPTGPSQLELTLQASKQNGTWPREVLLVLSVNSSVFLHLQALGIPLHLAYNSSLVTFQEPPGVNTTELPSFPKTQILEWAAERGPITSAAELNDPQSILLRLGQAQGSLSFCMLEASQDMGRTLEWRPRTPALVRGCHLEGVAGHKEAHILRVLPGHSAGPRTVTVKVELSCAPGDLDAVLILQGPPYVSWLIDANHNMQIWTTGEYSFKIFPEKNIRGFKLPDTPQGLLGEARMLNASIVASFVELPLASIVSLHASSCGGRLQTSPAPIQTTPPKDTCSPELLMSLIQTKCADDAMTLVLKKELVAHLKCTITGLTFWDPSCEAEDRGDKFVLRSAYSSCGMQVSASMISNEAVVNILSSSSPQRKKVHCLNMDSLSFQLGLYLSPHFLQASNTIEPGQQSFVQVRVSPSVSEFLLQLDSCHLDLGPEGGTVELIQGRAAKGNCVSLLSPSPEGDPRFSFLLHFYTVPIPKTGTLSCTVALRPKTGSQDQEVHRTVFMRLNIISPDLSGCTSKGLVLPAVLGITFGAFLIGALLTAALWYIYSHTRSPSKREPVVAVAAPASSESSSTNHSIGSTQSTPCSTSSMA | −3.86% | 1.62% |
| AFP (protein, UniProt P02771 19-609, looked up) Alpha-fetoprotein: RTLHRNEYGIASILDSYQCTAEISLADLATIFFAQFVQEATYKEVSKMVKDALTAIEKPTGDEQSSGCLENQLPAFLEELCHEKEILEKYGHSDCCSQSEEGRHNCFLAHKKPTPASIPLFQVPEPVTSCEAYEEDRETFMNKFIYEIARRHPFLYAPTILLWAARYDKIIPSCCKAENAVECFQTKAATVTKELRESSLLNQHACAVMKNFGTRTFQAITVTKLSQKFTKVNFTEIQKLVLDVAHVHEHCCRGDVLDCLQDGEKIMSYICSQQDTLSNKITECCKLTTLERGQCIIHAENDEKPEGLSPNLNRFLGDRDFNQFSSGEKNIFLASFVHEYSRRHPQLAVSVILRVAKGYQELLEKCFQTENPLECQDKGEEELQKYIQESQALAKRSCGLFQKLGEYYLQNAFLVAYTKKAPQLTSSELMAITRKMAATAATCCQLSEDKLLACGEGAADIIIGHLCIRHEMTPVNPGVGQCCTSSYANRRPCFSSLVVDETYVPPAFSDDKFIFHKDLCQAQGVALQTMKQEFLINLVKQKPQITEEQLEAVIADFSGLLEKCCQGQEQEVCFAEEGQKLISKTRAALGV | 1.07% | −0.39% |
| FTCD (protein, UniProt O95954 1-541, looked up) Formimidoyltransferase-cyclode …: MSQLVECVPNFSEGKNQEVIDAISGAITQTPGCVLLDVDAGPSTNRTVYTFVGPPECVVEGALNAARVASRLIDMSRHQGEHPRMGALDVCPFIPVRGVSVDECVLCAQAFGQRLAEELDVPVYLYGEAARMDSRRTLPAIRAGEYEALPKKLQQADWAPDFGPSSFVPSWGATATGARKFLIAFNINLLGTKEQAHRIALNLREQGRGKDQPGRLKKVQGIGWYLDEKNLAQVSTNLLDFEVTALHTVYEETCREAQELSLPVVGSQLVGLVPLKALLDAAAFYCEKENLFILEEEQRIRLVVSRLGLDSLCPFSPKERIIEYLVPERGPERGLGSKSLRAFVGEVGARSAAPGGGSVAAAAAAMGAALGSMVGLMTYGRRQFQSLDTTMRRLIPPFREASAKLTTLVDADAEAFTAYLEAMRLPKNTPEEKDRRTAALQEGLRRAVSVPLTLAETVASLWPALQELARCGNLACRSDLQVAAKALEMGVFGAYFNVLINLRDITDEAFKDQIHHRVSSLLQEAKTQAALVLDCLETRQE | −42.29% | −6.71% |
| Activin RIB (protein, UniProt P36896 24-505, looked up) Activin receptor type-1B: SGPRGVQALLCACTSCLQANYTCETDGACMVSIFNLDGMEHHVRTCIPKVELVPAGKPFYCLSSEDLRNTHCCYTDYCNRIDLRVPSGHLKEPEHPSMWGPVELVGIIAGPVFLLFLIIIIVFLVINYHQRVYHNRQRLDMEDPSCEMCLSKDKTLQDLVYDLSTSGSGSGLPLFVQRTVARTIVLQEIIGKGRFGEVWRGRWRGGDVAVKIFSSREERSWFREAEIYQTVMLRHENILGFIAADNKDNGTWTQLWLVSDYHEHGSLFDYLNRYTVTIEGMIKLALSAASGLAHLHMEIVGTQGKPGIAHRDLKSKNILVKKNGMCAIADLGLAVRHDAVTDTIDIAPNQRVGTKRYMAPEVLDETINMKHFDSFKCADIYALGLVYWEIARRCNSGGVHEEYQLPYYDLVPSDPSIEEMRKVVCDQKLRPNIPNWWQSYEALRVMGKMMRECWYANGAARLTALRIKKTLSQLSVQEDVKI | 0.64% | −2.91% |
| DSC3 (protein, UniProt Q14574 136-896, looked up) Desmocollin-3: RWAPIPCSMQENSLGPFPLFLQQVESDAAQNYTVFYSISGRGVDKEPLNLFYIERDTGNLFCTRPVDREEYDVFDLIAYASTADGYSADLPLPLPIRVEDENDNHPVFTEAIYNFEVLESSRPGTTVGVVCATDRDEPDTMHTRLKYSILQQTPRSPGLFSVHPSTGVITTVSHYLDREVVDKYSLIMKVQDMDGQFFGLIGTSTCIITVTDSNDNAPTFRQNAYEAFVEENAFNVEILRIPIEDKDLINTANWRVNFTILKGNENGHFKISTDKETNEGVLSVVKPLNYEENRQVNLEIGVNNEAPFARDIPRVTALNRALVTVHVRDLDEGPECTPAAQYVRIKENLAVGSKINGYKAYDPENRNGNGLRYKKLHDPKGWITIDEISGSIITSKILDREVETPKNELYNITVLAIDKDDRSCTGTLAVNIEDVNDNPPEILQEYVVICKPKMGYTDILAVDPDEPVHGAPFYFSLPNTSPEISRLWSLTKVNDTAARLSYQKNAGFQEYTIPITVKDRAGQAATKLLRVNLCECTHPTQCRATSRSTGVILGKWAILAILLGIALLFSVLLTLVCGVFGATKGKRFPEDLAQQNLIISNTEAPGDDRVCSANGFMTQTTNNSSQGFCGTMGSGMKNGGQETIEMMKGGNQTLESCRGAGHHHTLDSCRGGHTEVDNCRYTYSEWHSFTQPRLGEKLHRCNQNEDRMPSQDYVLTYNYEGRGSPAGSVGCCSEKQEEDGLDFLNNLEPKFITLAEACTKR | 6.37% | 1.23% |
| WFKN2 (protein, UniProt Q8TEU8 35-576, looked up) WAP, Kazal, immunoglobulin, …: LPPIRYSHAGICPNDMNPNLWVDAQSTCRRECETDQECETYEKCCPNVCGTKSCVAARYMDVKGKKGPVGMPKEATCDHFMCLQQGSECDIWDGQPVCKCKDRCEKEPSFTCASDGLTYYNRCYMDAEACSKGITLAVVTCRYHFTWPNTSPPPPETTMHPTTASPETPELDMAAPALLNNPVHQSVTMGETVSFLCDVVGRPRPEITWEKQLEDRENVVMRPNHVRGNVVVTNIAQLVIYNAQLQDAGIYTCTARNVAGVLRADFPLSVVRGHQAAATSESSPNGTAFPAAECLKPPDSEDCGEEQTRWHFDAQANNCLTFTFGHCHRNLNHFETYEACMLACMSGPLAACSLPALQGPCKAYAPRWAYNSQTGQCQSFVYGGCEGNGNNFESREACEESCPFPRGNQRCRACKPRQKLVTSFCRSDFVILGRVSELTEEPDSGRALVTVDEVLKDEKMGLKFLGQEPLEVTLLHVDWACPCPNVTVSEMPLIIMGEVDGGMAMLRPDSFVGASSARRVRKLREVMHKKTCDVLKEFLGLH | −2.98% | 0.47% |
| MICA (protein, UniProt Q29983 24-383, looked up) MHC class I …: EPHSLRYNLTVLSWDGSVQSGFLTEVHLDGQPFLRCDRQKCRAKPQGQWAEDVLGNKTWDRETRDLTGNGKDLRMTLAHIKDQKEGLHSLQEIRVCEIHEDNSTRSSQHFYYDGELFLSQNLETKEWTMPQSSRAQTLAMNVRNFLKEDAMKTKTHYHAMHADCLQELRRYLKSGVVLRRTVPPMVNVTRSEASEGNITVTCRASGFYPWNITLSWRQDGVSLSHDTQQWGDVLPDGNGTYQTWVATRICQGEEQRFTCYMEHSGNHSTHPVPSGKVLVLQSHWQTFHVSAVAAAAIFVIIIFYVRCCKKKTSAAEGPELVSLQVLDQHPVGTSDHRDATQLGFQPLMSDLGSTGSTEGA | −5.58% | 1.73% |
| CLC7A (protein, UniProt Q9BXN2 1-247, looked up) C-type lectin domain family 7 …: MEYHPDLENLDEDGYTQLHFDSQSNTRIAVVSEKGSCAASPPWRLIAVILGILCLVILVIAVVLGTMAIWRSNSGSNTLENGYFLSRNKENHSQPTQSSLEDSVTPTKAVKTTGVLSSPCPPNWIIYEKSCYLFSMSLNSWDGSKRQCWQLGSNLLKIDSSNELGFIVKQVSSQPDNSFWIGLSRPQTEVPWLWEDGSTFSSNLFQIRTTATQENPSPNCVWIHVSVIYDQLCSVPSYSICEKKFSM | 3.23% | −3.19% |
| IL-17D (protein, UniProt Q8TAD2 16-202, looked up) Interleukin-17D: AGAPRAGRRPARPRGCADRPEELLEQLYGRLAAGVLSAFHHTLQLGPREQARNASCPAGGRPADRRFRPPTNLRSVSPWAYRISYDPARYPRYLPEAYCLCRGCLTGLFGEEDVRFRSAPVYMPTVVLRRTPACAGGRSVYTEAYVTIPVGCTCVPEPEKDADSINSSIDKQGAKLLLGPNDAPAGP | −1.33% | 0.85% |
| SLAF5 (protein, UniProt Q9UIB8 22-345, looked up) SLAM family member 5: KDSEIFTVNGILGESVTFPVNIQEPRQVKIIAWTSKTSVAYVTPGDSETAPVVTVTHRNYYERIHALGPNYNLVISDLRMEDAGDYKADINTQADPYTTTKRYNLQIYRRLGKPKITQSLMASVNSTCNVTLTCSVEKEEKNVTYNWSPLGEEGNVLQIFQTPEDQELTYTCTAQNPVSNNSDSISARQLCADIAMGFRTHHTGLLSVLAMFFLLVLILSSVFLFRLFKRRQGRIFPEGSCLNTFTKNPYAASKKTIYTYIMASRNTQPAESRIYDEILQSKVLPSKEEPVNTVYSEVQFADKMGKASTQDSKPPGTSSYEIVI | −0.59% | −4.04% |

— US20200340060A1, “COMPOSITIONS AND METHODS FOR IDENTIFYING AND TREATING LIVER DISEASES AND MONITORING TREATMENT OUTCOMES” (Gilead Sciences, Inc., priority 2017, published 2020)
